The source of these data is publication PMC4507021.

Chains of the proteins cited; added tags and fusions are not shown.
UniProt Q8I719: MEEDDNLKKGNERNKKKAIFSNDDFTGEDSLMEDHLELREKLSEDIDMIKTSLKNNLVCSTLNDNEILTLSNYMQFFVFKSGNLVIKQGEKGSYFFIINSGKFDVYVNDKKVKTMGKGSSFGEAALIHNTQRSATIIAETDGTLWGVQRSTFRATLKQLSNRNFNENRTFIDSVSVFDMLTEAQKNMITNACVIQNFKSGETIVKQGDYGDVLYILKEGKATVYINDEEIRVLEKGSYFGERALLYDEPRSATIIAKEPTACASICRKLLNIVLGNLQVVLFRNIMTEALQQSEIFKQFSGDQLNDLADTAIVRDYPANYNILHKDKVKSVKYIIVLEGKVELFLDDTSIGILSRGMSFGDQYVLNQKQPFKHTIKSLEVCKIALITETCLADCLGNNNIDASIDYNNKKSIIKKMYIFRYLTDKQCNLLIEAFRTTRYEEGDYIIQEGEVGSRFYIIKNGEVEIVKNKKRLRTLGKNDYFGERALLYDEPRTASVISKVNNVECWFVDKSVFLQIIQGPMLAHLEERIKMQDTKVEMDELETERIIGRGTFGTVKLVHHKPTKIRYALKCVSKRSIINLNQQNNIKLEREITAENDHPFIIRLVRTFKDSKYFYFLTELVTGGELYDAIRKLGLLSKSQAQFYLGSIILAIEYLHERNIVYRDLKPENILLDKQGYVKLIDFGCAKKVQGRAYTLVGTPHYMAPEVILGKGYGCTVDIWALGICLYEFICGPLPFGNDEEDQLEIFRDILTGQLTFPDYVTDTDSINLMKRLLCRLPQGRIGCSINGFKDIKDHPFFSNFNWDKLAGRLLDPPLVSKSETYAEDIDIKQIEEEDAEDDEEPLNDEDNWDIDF
UniProt P62344: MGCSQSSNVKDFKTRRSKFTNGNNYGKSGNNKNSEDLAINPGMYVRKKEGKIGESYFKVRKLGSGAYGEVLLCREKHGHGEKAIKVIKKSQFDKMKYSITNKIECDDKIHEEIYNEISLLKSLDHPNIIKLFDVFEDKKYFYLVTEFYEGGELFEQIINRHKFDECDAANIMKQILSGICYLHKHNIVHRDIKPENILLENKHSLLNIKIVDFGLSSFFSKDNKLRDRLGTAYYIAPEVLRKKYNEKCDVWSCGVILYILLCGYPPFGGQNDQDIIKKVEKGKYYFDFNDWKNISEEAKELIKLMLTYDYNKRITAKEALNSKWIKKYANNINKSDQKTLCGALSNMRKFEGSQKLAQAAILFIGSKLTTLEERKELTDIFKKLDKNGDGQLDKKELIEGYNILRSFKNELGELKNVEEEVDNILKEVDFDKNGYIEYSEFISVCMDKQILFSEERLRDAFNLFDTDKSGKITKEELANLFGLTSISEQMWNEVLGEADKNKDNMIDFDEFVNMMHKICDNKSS

These are yes or no findings as the source states them, for the method shown.

Test [1] deals with P. falciparum cGMP-dependent protein kinase, PfPKG (Plasmodium falciparum (endogenous in cultured parasites)) (UniProt Q8I719). Nature of the test: SEC; late schizont lysate (TEG buffer, 0.1% NP-40, sonicated) on Superdex 200 (10 x 300 mm) in 50 mM Tris-HCl, 0.15 M NaCl, 20 mM beta-glycerol phosphate, pH 7.4, 4 °C; 1 ml fractions probed by western blot; parasites treated with vehicle or Compound 2 (2 uM, 3 h, with E-64). On the technique in general: Size exclusion chromatography separates by hydrodynamic size, large species first.

Test [2] has as its target HA-tagged PfCDPK1 (Plasmodium falciparum calcium-dependent protein kinase 1) (Plasmodium falciparum 3D7) (UniProt P62344). The test is described as above.

In the case of “P. falciparum cGMP-dependent protein kinase, PfPKG (from UniProt Q8I719 1-853) (enzyme)”, the binding result in test [1] and in test [2] was “no binding” in each case.
